# Results as given in the supplement of paper PMC7666118.
# Chains of the proteins cited; added tags and fusions are not shown. Lines headed by an entry give the natural chain unless they say otherwise; changes in a name come on top.
# UniProt Q19AV6: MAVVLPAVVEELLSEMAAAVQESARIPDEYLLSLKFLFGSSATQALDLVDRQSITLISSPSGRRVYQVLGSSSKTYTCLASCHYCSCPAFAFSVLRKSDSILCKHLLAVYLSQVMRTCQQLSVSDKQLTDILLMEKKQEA
# UniProt Q499Z4: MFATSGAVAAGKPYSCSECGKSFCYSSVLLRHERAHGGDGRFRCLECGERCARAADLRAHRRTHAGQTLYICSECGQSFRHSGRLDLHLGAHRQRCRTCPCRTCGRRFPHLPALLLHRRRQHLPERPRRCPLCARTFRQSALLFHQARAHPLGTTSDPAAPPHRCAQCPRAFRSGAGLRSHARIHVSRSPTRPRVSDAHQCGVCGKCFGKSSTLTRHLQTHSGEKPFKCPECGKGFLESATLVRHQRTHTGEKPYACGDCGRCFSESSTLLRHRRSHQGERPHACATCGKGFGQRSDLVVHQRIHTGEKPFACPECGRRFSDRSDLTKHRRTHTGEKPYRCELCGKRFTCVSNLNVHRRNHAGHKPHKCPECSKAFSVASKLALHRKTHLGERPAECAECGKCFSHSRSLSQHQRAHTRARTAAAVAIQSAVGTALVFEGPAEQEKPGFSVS
# UniProt Q5T7W0: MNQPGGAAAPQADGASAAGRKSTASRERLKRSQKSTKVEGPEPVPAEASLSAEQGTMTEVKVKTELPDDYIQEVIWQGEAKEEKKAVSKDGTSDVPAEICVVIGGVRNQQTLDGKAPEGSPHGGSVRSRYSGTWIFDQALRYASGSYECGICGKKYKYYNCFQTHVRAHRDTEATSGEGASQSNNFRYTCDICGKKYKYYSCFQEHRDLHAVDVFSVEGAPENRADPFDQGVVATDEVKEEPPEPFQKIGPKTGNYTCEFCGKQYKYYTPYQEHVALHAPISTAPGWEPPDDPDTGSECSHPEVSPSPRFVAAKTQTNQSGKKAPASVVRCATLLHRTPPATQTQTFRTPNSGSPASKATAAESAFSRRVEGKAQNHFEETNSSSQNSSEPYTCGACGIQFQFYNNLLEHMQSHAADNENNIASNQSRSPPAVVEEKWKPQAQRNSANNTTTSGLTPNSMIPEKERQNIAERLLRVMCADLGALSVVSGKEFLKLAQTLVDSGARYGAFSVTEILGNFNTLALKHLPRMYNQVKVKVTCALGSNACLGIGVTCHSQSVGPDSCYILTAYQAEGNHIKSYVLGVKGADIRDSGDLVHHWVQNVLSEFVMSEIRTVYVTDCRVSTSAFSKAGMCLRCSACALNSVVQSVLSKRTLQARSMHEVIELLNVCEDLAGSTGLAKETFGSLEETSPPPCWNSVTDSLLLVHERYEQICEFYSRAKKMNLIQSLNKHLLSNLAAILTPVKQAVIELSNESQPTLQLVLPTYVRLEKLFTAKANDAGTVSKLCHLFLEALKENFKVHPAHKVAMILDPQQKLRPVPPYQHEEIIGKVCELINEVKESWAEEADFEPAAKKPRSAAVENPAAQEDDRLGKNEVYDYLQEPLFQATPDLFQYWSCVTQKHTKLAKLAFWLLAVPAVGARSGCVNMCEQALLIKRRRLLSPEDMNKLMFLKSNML
# UniProt Q92610: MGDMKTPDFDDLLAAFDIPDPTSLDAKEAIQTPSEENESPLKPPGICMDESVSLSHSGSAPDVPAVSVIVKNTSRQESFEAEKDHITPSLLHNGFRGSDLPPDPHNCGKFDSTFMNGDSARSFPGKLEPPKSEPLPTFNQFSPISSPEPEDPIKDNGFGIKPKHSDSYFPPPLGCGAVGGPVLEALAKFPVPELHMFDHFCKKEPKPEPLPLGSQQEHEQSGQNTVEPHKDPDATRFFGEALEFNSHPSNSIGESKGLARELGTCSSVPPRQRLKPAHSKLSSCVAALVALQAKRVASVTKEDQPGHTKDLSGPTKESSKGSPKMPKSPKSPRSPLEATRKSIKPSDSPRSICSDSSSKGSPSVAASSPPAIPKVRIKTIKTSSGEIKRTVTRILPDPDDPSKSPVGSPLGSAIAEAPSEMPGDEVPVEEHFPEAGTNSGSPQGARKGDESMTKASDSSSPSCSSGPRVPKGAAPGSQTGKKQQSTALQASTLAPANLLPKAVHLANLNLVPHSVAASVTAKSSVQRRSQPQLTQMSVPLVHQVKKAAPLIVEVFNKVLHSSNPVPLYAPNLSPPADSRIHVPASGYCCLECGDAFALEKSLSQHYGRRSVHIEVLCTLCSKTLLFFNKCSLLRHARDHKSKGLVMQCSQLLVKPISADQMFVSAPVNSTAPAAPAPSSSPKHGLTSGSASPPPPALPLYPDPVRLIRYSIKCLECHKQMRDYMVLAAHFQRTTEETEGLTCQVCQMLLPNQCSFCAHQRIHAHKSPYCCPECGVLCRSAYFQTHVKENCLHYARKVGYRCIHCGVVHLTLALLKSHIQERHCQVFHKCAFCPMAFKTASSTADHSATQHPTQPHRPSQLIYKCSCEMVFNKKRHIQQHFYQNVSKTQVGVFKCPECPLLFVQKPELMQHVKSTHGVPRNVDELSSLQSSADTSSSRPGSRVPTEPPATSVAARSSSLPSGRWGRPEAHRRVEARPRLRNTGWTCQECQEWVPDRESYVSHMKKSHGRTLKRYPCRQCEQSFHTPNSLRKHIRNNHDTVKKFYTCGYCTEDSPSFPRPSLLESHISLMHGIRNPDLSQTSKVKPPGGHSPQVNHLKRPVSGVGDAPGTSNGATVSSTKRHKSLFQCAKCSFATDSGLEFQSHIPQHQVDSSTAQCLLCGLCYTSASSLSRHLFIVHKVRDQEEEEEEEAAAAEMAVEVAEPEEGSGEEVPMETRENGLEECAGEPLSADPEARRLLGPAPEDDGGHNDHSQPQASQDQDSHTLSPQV
# UniProt Q9H5H4: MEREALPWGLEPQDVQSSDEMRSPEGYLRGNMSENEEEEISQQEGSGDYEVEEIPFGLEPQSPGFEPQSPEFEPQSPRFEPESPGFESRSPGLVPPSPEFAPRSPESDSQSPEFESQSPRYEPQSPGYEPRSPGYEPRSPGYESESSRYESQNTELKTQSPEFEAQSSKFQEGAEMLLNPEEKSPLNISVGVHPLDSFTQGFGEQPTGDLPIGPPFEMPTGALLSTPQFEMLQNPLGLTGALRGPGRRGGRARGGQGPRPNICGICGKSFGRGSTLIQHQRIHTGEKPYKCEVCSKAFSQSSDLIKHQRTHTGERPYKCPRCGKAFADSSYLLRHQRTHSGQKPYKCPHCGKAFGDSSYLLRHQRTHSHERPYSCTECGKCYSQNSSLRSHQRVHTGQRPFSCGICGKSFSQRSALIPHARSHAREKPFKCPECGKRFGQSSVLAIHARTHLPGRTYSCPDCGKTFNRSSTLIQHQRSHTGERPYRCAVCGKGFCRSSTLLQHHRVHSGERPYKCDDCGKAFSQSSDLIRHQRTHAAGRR
# UniProt Q9Y5V0: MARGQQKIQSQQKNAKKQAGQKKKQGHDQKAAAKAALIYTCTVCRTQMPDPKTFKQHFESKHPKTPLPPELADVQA
# UniProt P0CG23: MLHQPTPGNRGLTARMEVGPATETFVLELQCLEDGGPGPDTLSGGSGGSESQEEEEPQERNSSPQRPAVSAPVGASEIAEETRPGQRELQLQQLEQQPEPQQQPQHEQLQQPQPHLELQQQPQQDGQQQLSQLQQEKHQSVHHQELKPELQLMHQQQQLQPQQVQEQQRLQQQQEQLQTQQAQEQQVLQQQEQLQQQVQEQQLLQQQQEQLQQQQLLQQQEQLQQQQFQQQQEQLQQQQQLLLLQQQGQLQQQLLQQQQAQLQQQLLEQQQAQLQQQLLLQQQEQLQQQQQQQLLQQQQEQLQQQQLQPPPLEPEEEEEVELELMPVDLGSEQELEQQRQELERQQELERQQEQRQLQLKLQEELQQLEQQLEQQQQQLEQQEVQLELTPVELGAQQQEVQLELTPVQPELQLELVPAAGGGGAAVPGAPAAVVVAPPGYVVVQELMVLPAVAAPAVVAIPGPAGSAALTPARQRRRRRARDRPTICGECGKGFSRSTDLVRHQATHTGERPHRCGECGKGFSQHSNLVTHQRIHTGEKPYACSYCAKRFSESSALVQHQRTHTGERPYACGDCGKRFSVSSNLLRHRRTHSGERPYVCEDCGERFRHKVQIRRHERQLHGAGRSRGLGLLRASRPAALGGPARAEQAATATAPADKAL
# UniProt Q9C0D3: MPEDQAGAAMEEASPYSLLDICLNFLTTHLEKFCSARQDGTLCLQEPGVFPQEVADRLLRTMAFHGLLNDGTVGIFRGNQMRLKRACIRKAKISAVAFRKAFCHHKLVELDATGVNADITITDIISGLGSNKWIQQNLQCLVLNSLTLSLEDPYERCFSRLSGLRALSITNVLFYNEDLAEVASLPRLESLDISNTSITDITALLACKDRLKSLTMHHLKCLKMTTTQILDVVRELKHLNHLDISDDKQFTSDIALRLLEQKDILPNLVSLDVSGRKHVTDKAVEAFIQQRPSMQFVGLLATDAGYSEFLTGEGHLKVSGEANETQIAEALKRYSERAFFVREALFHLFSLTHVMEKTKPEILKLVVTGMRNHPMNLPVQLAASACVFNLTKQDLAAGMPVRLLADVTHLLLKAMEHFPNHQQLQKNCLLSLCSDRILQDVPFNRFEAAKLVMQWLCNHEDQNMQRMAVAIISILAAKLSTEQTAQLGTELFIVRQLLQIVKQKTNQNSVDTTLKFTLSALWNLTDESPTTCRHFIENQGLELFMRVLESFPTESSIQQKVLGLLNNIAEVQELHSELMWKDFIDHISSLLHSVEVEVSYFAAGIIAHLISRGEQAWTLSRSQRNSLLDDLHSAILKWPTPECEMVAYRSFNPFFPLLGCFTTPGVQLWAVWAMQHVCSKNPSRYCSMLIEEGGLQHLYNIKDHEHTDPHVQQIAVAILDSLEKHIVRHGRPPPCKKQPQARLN
# UniProt Q86UK7: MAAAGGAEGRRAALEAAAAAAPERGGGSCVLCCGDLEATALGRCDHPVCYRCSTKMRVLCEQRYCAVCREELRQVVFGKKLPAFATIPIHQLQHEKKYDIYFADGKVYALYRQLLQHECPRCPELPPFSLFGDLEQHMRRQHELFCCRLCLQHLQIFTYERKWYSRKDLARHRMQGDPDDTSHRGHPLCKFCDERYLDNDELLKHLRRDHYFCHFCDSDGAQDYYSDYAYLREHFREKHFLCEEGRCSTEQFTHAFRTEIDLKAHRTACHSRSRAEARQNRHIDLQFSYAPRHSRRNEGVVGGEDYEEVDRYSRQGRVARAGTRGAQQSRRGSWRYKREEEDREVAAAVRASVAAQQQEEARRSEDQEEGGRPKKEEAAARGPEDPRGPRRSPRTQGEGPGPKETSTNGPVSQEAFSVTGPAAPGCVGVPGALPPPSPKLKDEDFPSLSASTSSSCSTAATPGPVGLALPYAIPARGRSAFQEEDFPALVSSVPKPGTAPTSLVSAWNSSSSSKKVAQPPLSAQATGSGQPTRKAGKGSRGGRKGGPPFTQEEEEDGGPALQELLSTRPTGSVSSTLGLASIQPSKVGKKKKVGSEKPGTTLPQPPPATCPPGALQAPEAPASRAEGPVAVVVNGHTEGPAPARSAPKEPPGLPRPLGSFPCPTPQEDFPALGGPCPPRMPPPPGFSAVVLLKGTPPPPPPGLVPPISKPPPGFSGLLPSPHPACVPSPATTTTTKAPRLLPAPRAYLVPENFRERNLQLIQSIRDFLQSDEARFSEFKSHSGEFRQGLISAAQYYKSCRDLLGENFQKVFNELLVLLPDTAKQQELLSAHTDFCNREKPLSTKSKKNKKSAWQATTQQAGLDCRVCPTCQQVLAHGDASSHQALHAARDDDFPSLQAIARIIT
# UniProt Q8NAF0: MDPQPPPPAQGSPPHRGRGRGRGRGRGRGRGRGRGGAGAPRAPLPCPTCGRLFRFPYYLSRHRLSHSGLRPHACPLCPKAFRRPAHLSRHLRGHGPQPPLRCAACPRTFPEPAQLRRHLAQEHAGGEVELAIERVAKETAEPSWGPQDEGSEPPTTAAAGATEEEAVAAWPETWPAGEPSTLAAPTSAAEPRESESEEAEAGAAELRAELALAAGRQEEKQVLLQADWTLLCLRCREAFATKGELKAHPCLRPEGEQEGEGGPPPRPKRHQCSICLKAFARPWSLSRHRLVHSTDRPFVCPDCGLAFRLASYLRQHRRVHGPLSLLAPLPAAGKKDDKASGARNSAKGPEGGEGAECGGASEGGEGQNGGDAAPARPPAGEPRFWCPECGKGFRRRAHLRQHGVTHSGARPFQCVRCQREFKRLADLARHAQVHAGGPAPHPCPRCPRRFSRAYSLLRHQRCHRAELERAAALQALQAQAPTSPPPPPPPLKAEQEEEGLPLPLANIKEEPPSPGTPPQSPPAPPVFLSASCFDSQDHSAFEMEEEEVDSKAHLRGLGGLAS
# UniProt Q8NDX6: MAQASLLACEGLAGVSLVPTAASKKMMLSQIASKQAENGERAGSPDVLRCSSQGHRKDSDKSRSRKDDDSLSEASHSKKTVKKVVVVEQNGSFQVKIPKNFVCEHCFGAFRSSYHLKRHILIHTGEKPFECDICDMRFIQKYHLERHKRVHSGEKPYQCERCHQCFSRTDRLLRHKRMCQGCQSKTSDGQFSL
# Some of the results follow.
# Compound: COc1ccc(Cn2ccc3ccc(C(=O)NO)cc32)cc1
# Test: dose-dependent thermal stabilisation call (2D-TPP, DLPTP, 10% FDR) (binary (1 = stabilised)); higher = stabilised by the compound
# Details: system: HL-60 intact cells; concentration range 0.04-10 µM
row,Target,dose-dependent thermal stabilisation call
1,ZNF828 (UniProt Q96JM3),inactive: 0
2,ZNHIT3 (UniProt Q15649),inactive: 0
3,ZNF609 (UniProt O15014),inactive: 0
4,ZWINT (UniProt O95229),inactive: 0
5,ZNF318 (UniProt Q5VUA4),inactive: 0
6,ZZEF1 (UniProt O43149),inactive: 0
7,ZNF622 (UniProt Q969S3),inactive: 0
8,ZNF428 (UniProt Q96B54),inactive: 0
9,ZNF800 (UniProt Q2TB10),inactive: 0
10,ZSWIM7 (UniProt Q19AV6),inactive: 0
11,ZNF460 (UniProt Q14592),inactive: 0
12,ZNRF2 (UniProt Q8NHG8),inactive: 0
13,ZNF451 (UniProt Q9Y4E5),inactive: 0
14,ZNFX1 (UniProt Q9P2E3),inactive: 0
15,ZNF687 (UniProt Q8N1G0),inactive: 0
16,ZNF672 (UniProt Q499Z4),inactive: 0
17,ZNF618 (UniProt Q5T7W0),inactive: 0
18,ZNF574 (UniProt Q6ZN55),inactive: 0

row,Target,dose-dependent thermal stabilisation call
1,ZNF512 (UniProt Q96ME7),inactive: 0
2,ZNF646 (UniProt O15015),inactive: 0
3,ZNF592 (UniProt Q92610),inactive: 0
4,ZNF768 (UniProt Q9H5H4),inactive: 0
5,ZNF295 (UniProt Q9ULJ3),inactive: 0
6,ZNF638 (UniProt Q14966),inactive: 0
7,ZZZ3 (UniProt Q8IYH5),inactive: 0
8,ZRANB2 (UniProt O95218),inactive: 0
9,ZNF706 (UniProt Q9Y5V0),inactive: 0
10,ZNF281 (UniProt Q9Y2X9),inactive: 0
11,ZNF330 (UniProt Q9Y3S2),inactive: 0
12,ZNF644 (UniProt Q9H582),inactive: 0
13,ZNF853 (UniProt P0CG23),inactive: 0
14,ZYG11B (UniProt Q9C0D3),inactive: 0
15,ZNF598 (UniProt Q86UK7),inactive: 0
16,ZNF384 (UniProt Q8TF68),inactive: 0
17,ZNF579 (UniProt Q8NAF0),inactive: 0
18,ZNF740 (UniProt Q8NDX6),inactive: 0

# 3 entries from above in another layout.
row | Target | dose-dependent thermal stabilisation call
3 | ZNF592 (UniProt Q92610) | inactive: 0
4 | ZNF768 (UniProt Q9H5H4) | inactive: 0
5 | ZNF295 (UniProt Q9ULJ3) | inactive: 0
